Measured values published in PMC11327461, “Exogenous serpin B1 restricts immune complex-mediated NET formation via inhibition of a chymotrypsin-like protease and enhances microbial phagocytosis” (The Journal of Biological Chemistry, 2024).
No constants are given. Whether binding was seen depends on the method and setting. Some entries that bind do so weakly or less than the wild type.

Amino acid sequences for entries named in this document (tags omitted). Residues count along the entry.
UniProt P08246, residues 30-267: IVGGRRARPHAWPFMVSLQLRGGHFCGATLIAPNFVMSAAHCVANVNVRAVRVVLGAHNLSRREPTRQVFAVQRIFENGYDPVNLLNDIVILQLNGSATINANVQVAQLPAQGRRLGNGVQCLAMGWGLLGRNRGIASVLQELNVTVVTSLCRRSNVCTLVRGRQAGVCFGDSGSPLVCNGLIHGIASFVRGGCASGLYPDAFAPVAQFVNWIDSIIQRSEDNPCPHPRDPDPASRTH

Target: neutrophil elastase (human) (UniProt P08246)
Assay: formation of SDS- and heat-stable serpin-protease complexes, SDS-PAGE; 2 uL of hNE, hPR3 or hCG (23.4 uM each) mixed with each sB1 protein at 1:1 molar ratio in 20 uL PBS, pH 7.4, 15 min; stopped with protease inhibitor mix; reducing sample buffer, heated, SDS-PAGE; both purified

B1: recombinant human serpin B1, wild type (C344) (protein, UniProt P30740 1-379)
chain: MEQLSSANTRFALDLFLALSENNPAGNIFISPFSISSAMAMVFLGTRGNTAAQLSKTFHFNTVEEVHSRFQSLNADINKRGASYILKLANRLYGEKTYNFLPEFLVSTQKTYGADLASVDFQHASEDARKTINQWVKGQTEGKIPELLASGMVDNMTKLVLVNAIYFKGNWKDKFMKEATTNAPFRLNKKDRKTVKMMYQKKKFAYGYIEDLKCRVLELPYQGEELSMVILLPDDIEDESTGLKKIEEQLTLEKLHEWTKPENLDFIEVNVSLPRFKLEESYTLNSDLARLGVQDLFNSSKADLSGMSGARDIFISKIVHKSFVEVNEEGTEAAAATAGIATFCMLMPEENFTADHPFLFFIRHNSSGSILFLGRFSSP
  binding: binds
